Binding data for three substances are collected here from publication doi:10.1101/2023.04.29.538809.

Amino acid sequences for entries named in this document (tags omitted). A change or cut given only in a name is not applied to a line headed by its entry.
UniProt Q92560, whole entry: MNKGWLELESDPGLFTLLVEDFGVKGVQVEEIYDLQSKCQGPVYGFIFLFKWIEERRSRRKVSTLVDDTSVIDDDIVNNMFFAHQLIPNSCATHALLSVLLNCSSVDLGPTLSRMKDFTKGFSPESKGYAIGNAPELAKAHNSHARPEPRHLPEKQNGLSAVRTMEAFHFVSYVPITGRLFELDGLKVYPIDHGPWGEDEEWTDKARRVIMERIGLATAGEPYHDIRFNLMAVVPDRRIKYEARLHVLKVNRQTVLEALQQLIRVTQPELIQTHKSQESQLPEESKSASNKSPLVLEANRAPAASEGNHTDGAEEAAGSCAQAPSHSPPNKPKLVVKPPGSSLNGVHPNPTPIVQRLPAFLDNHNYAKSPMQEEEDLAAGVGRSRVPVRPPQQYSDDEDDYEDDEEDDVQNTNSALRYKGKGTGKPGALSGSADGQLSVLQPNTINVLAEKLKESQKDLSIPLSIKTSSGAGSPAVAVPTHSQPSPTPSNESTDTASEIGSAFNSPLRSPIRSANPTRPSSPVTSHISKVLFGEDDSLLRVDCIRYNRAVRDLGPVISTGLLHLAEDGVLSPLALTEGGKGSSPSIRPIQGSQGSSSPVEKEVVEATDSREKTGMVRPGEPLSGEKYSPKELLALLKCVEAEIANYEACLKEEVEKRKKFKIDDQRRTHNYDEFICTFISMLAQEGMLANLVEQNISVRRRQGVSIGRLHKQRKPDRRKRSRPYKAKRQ
UniProt Q15172, whole entry: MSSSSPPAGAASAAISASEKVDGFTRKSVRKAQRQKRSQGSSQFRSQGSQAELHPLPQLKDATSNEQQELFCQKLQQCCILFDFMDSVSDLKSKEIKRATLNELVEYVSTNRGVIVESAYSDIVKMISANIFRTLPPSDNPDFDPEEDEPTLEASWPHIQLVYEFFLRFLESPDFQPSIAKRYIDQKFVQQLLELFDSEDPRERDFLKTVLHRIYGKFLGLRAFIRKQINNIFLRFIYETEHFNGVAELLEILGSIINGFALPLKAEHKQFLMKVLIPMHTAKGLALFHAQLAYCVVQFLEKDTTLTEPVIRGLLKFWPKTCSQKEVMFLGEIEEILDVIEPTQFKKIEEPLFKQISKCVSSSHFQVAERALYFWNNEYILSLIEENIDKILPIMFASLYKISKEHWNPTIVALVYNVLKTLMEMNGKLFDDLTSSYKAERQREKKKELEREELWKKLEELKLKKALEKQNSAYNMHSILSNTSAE

Results are given in words; binding and its absence hold for the method and conditions named. In cells and extracts the contact can be indirect. Some binding calls cover weakened binding; strength is not graded here.

Common to all, as to test: co-IP
The target in assay [1] is PRR14L-2067/8EE>AA (human) (UniProt Q5THK1).
In a further assay the target is T1, PRR14L-Q314X (human) (UniProt Q5THK1).
T1 sequence: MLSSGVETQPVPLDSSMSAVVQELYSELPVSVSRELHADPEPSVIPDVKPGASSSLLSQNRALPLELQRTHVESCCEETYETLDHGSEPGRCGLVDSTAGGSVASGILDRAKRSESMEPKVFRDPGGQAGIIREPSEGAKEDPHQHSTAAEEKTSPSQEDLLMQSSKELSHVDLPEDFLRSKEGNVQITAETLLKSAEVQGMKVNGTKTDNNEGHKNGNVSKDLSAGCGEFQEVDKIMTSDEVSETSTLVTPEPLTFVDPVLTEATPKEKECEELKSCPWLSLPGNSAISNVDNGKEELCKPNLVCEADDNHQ

The next assay concerns the target PRR14L-R1833X (human) (UniProt Q5THK1).
A further assay deals with T2, PRR14L-TANT (human) (UniProt Q5THK1).
T2 sequence: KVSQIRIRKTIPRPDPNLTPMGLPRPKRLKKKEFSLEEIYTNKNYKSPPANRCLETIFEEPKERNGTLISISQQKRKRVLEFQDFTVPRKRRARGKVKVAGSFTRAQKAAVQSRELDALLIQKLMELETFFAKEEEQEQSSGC

Assay [2] has as its target C-terminal Myc-FLAG tagged PRR14L (human) (UniProt Q5THK1).

On to “HA-tagged BAP1 (from UniProt Q92560 1-729)”, for which the binding entry in assay [1] is given as “binds”; with PRR14L-Q314X (human), “no binding”; in the assay with PRR14L-R1833X (human) it was “binds”; in the assay with PRR14L-TANT (human), “binds”.
In the case of “HA-tagged B56α (V245 pCEP-4HA B56α) (from UniProt Q15172 1-486)”, the binding entry in assay [2] is “binds”; in assay [1] it was “no binding”; with PRR14L-Q314X (human), “no binding”; with PRR14L-R1833X (human) it was “no binding”; in the assay with PRR14L-TANT (human), “binds”.
For “HA-tagged CIT (Citron Rho-Interacting Serine/Threonine Kinase) (from UniProt O14578-4 1-2069)”, the binding result in assay [2] is “no binding”.
